Test results as given in PMC5602382.
Where two headings read alike, the source gives them in different places. No constants are given. Whether binding was seen depends on the method and setting. In cells and extracts the contact can be indirect. Some binding calls cover weakened binding; strength is not graded here. Values belong to the molecule of their own block, whether it stands above or below them.

Amino acid sequences for entries named in this document (tags omitted). A change or cut given only in a name is not applied to a line headed by its entry.
UniProt P22392: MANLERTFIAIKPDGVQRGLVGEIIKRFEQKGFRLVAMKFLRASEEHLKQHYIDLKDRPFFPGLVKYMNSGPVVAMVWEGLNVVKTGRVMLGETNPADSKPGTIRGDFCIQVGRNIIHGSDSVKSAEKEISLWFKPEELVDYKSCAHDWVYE
UniProt Q13547: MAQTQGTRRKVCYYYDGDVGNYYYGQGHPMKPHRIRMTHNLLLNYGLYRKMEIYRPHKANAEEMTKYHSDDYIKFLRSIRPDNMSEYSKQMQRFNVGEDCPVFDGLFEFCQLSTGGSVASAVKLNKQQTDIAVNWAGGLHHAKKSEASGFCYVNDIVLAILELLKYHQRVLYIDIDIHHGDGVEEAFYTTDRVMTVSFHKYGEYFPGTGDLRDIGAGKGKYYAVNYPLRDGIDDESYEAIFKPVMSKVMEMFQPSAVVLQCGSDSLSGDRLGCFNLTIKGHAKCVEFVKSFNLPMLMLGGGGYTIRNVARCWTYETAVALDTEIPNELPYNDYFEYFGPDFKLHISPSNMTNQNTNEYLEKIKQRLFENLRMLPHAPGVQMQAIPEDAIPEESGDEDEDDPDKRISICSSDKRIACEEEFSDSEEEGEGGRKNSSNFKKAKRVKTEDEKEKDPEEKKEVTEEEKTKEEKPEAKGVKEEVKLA
UniProt Q92769: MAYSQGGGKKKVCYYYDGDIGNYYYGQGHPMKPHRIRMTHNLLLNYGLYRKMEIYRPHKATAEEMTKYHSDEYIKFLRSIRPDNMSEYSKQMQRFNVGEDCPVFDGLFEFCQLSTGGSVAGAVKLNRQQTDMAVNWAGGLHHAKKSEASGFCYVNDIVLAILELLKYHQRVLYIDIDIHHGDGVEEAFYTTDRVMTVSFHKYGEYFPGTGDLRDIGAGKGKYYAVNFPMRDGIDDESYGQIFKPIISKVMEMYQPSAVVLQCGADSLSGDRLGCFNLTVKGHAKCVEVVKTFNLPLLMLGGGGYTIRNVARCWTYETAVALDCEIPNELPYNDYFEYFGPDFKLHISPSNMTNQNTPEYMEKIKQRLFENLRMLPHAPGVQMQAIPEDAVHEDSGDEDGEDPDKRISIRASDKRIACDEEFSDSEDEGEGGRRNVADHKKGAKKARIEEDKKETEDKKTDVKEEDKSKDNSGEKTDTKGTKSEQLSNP

How the values were obtained:
[1] = biological target: non-metastatic 2 (NME2) (human (endogenous in HT1080)) (UniProt P22392); assay: co-IP; 500 ug HT1080 nuclear extract, 4 ug anti-NME2 antibody (Kamiya), 4 h at 4 °C, Catch and Release kit; blots for REST, LSD1, HDAC1, HDAC2; isotype control IgG
[2] = biological target: T1, RE1-silencing transcription factor (REST) (human (endogenous in HT1080)) (UniProt Q13127); assay: co-IP; reverse co-IP with anti-REST or anti-LSD1 antibody, NME2 detected
T1 sequence: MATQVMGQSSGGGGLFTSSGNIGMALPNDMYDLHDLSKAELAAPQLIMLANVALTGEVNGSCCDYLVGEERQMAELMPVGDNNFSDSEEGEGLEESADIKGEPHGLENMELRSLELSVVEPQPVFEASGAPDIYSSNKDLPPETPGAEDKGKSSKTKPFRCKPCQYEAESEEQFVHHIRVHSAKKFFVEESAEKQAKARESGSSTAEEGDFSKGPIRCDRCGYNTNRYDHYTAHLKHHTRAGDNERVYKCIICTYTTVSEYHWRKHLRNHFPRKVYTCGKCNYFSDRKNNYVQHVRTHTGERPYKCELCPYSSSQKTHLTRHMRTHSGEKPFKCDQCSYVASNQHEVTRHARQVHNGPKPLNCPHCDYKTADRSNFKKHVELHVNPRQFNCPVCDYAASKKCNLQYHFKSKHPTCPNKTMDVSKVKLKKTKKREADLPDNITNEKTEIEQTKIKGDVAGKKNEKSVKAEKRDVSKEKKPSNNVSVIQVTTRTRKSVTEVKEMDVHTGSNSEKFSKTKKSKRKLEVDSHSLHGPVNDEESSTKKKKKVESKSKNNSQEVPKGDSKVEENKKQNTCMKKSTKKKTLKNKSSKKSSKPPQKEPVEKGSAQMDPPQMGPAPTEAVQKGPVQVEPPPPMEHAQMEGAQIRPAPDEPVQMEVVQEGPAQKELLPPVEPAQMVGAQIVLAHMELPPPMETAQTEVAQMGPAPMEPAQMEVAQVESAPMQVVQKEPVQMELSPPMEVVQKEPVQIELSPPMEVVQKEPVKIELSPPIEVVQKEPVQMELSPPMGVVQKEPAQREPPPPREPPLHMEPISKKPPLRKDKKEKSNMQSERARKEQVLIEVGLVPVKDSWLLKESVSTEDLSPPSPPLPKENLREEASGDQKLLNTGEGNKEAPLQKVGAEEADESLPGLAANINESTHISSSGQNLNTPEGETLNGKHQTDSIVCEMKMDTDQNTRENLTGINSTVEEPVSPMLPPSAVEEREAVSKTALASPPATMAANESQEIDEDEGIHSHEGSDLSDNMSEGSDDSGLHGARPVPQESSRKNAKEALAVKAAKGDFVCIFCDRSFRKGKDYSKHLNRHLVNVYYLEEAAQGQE

[3] = biological target: HA-NME2(N69H) (human) (UniProt P22392); assay: co-IP; nuclear lysate of HT1080 cells expressing HA-NME2 or HA-NME2(N69H), immunoprecipitated with anti-HA antibody, probed with anti-REST antibody
[4] = biological target: HA-tagged NME2 (HA-NME2) (human) (UniProt P22392); assay: as above
[5] = biological target: non-metastatic 2 (NME2) (human (endogenous in HT1080)) (UniProt P22392); assay: co-IP; 500 ug HT1080 nuclear extract, 4 ug anti-NME2 antibody (Kamiya), 4 h at 4 °C, Catch and Release kit; blots for REST, LSD1, HDAC1, HDAC2; isotype control IgG; remark: listed apart in the source

Molecule: HDAC1 (from UniProt Q13547 1-482)
binding [1]: binds

Molecule: non-metastatic 2 (NME2) (from UniProt P22392 1-152)
binding [2]: binds

Results, then the molecule that gave them:

binding [1]: binds
Molecule: HDAC2 (from UniProt Q92769 1-488)

binding [3]: binds
binding [4]: binds
binding [5]: binds
B1: RE1-silencing transcription factor (REST) (protein, UniProt Q13127 1-1097)
chain: T1 sequence
